{"source": "PubChem BioAssay AID686937 | Drosophila RNAi Screening Center, 2013", "assay": "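Genes in the fly needed for secretion of protein constitutively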 (primary screen)", "cell system": "Drosophila S2 cells expressing secreted horseradish peroxidase", "reagents": "long dsRNA against Drosophila genes", "time to read-out": "about 5.5 days (5 days dsRNA, then 12 h reporter induction)", "challenge": "reporter expression induced after 5 days of dsRNA, read 12 h later; inducer not stated", "detection": "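After 5 days of dsRNA and 12 h of reporter induction, medium peroxidase read by chemiluminescence and scored as per-plate z-score; higher values mean more reporter released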", "reading the numbers": "z-score: higher = more reporter secreted into medium", "note": "The deposit covers about 23,000 reagents; this is a random part of those with a known target gene and a result. 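Reduced-secretion tags in replicate 1 do not always agree with the z-scores; no criterion for assigning the tags was given.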 Reagents against one gene are numbered here. No sequences are given here. Not given: the amount of reagent."}
{"target": "byn (brachyenteron)", "dsRNA no.": 1, "z-score, replicate 1": 0.34, "z-score, replicate 2": 0.16}
{"target": "CG13002", "dsRNA no.": 1, "z-score, replicate 1": 0.42, "z-score, replicate 2": 0.56}
{"target": "CG7692", "dsRNA no.": 1, "z-score, replicate 1": 0.4, "z-score, replicate 2": 0.36}
{"target": "CG34451", "dsRNA no.": 1, "z-score, replicate 1": 0.49, "z-score, replicate 2": 0.08}
{"target": "CG34451", "dsRNA no.": 2, "z-score, replicate 1": 0.57, "z-score, replicate 2": 0.17}
{"target": "alpha-Man-IIb (alpha-Mannosidase class II b)", "dsRNA no.": 1, "z-score, replicate 1": 0.32, "z-score, replicate 2": 0.24}
{"target": "IntS2 (Integrator 2)", "dsRNA no.": 1, "z-score, replicate 1": 0.76, "z-score, replicate 2": 0.95}
{"target": "DEF8 (differentially expressed in FDCP 8 homolog)", "dsRNA no.": 1, "z-score, replicate 1": 0.35, "z-score, replicate 2": 0.34}
{"target": "sand (sandman)", "dsRNA no.": 1, "z-score, replicate 1": 0.22, "z-score, replicate 2": 0.22}
{"target": "CG18536", "dsRNA no.": 1, "z-score, replicate 1": 0.5, "z-score, replicate 2": 0.02}
{"target": "Hsp83 (Heat shock protein 83)", "dsRNA no.": 1, "z-score, replicate 1": -0.16, "z-score, replicate 2": 0.03}
{"target": "Dus2 (Dihydrouridine synthase 2)", "dsRNA no.": 1, "z-score, replicate 1": 0.19, "z-score, replicate 2": 0.3}
{"target": "kar (karmoisin)", "dsRNA no.": 1, "z-score, replicate 1": 0.27, "z-score, replicate 2": 0.23}
{"target": "CG7381", "dsRNA no.": 1, "z-score, replicate 1": 0.31, "z-score, replicate 2": 0.43}
{"target": "CG8778", "dsRNA no.": 1, "z-score, replicate 1": 0.34, "z-score, replicate 2": -0.12}
{"target": "ppan (peter pan)", "dsRNA no.": 1, "z-score, replicate 1": -0.18, "z-score, replicate 2": -0.27}
